Assay: Reaction of ZL33A with 1,4-NADH (hydride transfer, 1H NMR)
[1] = ZL33A:1,4-NADH 1:3, 298 K, 10 min
[2] = ZL33A:1,4-NADH 1:3, 298 K, 22 h
[3] = ZL33A:1,4-NADH 1:3, 298 K, 33 h
[4] = ZL33A:1,4-NADH 1.5:1, 298 K, 10 min
[5] = ZL33A:1,4-NADH 1.5:1, 298 K, 2 h
[6] = ZL33A:1,4-NADH 1.5:1, 298 K, 10 h

Q: Which “1,4-NADH reacted with the aqua complex (in words)” value (1,4-NADH:ZL33A 1:1.5, <10 min) does the source give for “[(η^5-C5Me4C6H5)Ir(phen)(H2O)]^2+ [ZL33A]” here?
A: all the 1,4-NADH reacted

Q: And the “Integral ratio, 1,4-NADH (NAD+ = 1)” value [1]?
A: 1.45

Q: And the “Integral ratio, Aqua complex (NAD+ = 1)” value [1]?
A: 0.25

Q: And the “Integral ratio, Hydride complex (NAD+ = 1)” value [1]?
A: 0.6

Q: And the “Integral ratio, 1,4-NADH (NAD+ = 1)” value [2]?
A: 1.3

Q: And the “Integral ratio, Aqua complex (NAD+ = 1)” value [2]?
A: 0.16

Q: And the “Integral ratio, Hydride complex (NAD+ = 1)” value [2]?
A: 0.5

Q: What about the “Integral ratio, 1,4-NADH (NAD+ = 1)” value [3] of the same substance?
A: 0.5

Q: What about the “Integral ratio, Aqua complex (NAD+ = 1)” value [3] of the same substance?
A: 0.45

Q: What about the “Integral ratio, Hydride complex (NAD+ = 1)” value [3] of the same substance?
A: 0.07

Q: What about the “Integral ratio, Aqua complex (NAD+ = 1)” value [4] of the same substance?
A: 1

Q: What about the “Integral ratio, Hydride complex (NAD+ = 1)” value [4] of the same substance?
A: 0.5

Q: And the “Integral ratio, Aqua complex (NAD+ = 1)” value [5]?
A: 1.3

Q: What about the “Integral ratio, Hydride complex (NAD+ = 1)” value [5] of the same substance?
A: 0.25

Q: And the “Integral ratio, Aqua complex (NAD+ = 1)” value [6]?
A: 1.6

Q: And the “Integral ratio, Hydride complex (NAD+ = 1)” value [6]?
A: 0

Q: What about the “1,4-NADH reacted with the aqua complex” value (three equiv 1,4-NADH, 2 mM ZL33A, 298 K, within 10 min) of the same substance?
A: 40%

Source: patent publication US9408853B2, “Iridium/rhodium anti-cancer compounds” (University of Warwick, priority 2010, dated 2016)
